In patent EP0077028B1 (Merck & Co., Inc., priority 1981, dated 1987):

Assay: general procedure: Boc solid-phase peptide synthesis
Settings: whole synthesis, TLC

Substance: N-Isovaleryl-L-histidyl-L-prolyl-L-phenylalanyl-L-histidyl-(3S,4S)-statyl-L-leucyl-L-phenylalanine amide
- final HPLC purity: Greater than 99%
